Source: PubChem BioAssay AID540256 (National Center for Advancing Translational Sciences (NCATS), 2011)
Hit rate of the full screen: of about 300,000 compounds, about 3,700 (1.2%) were called active. This list was built around the results that the source calls inconclusive (neither active nor inactive); the mix of calls is not that of the screen. Calls follow the shape of the full dose curve; tested in HEK293 cells. Potencies beside an inconclusive call are fits to weak or partial responses and may not hold up.

Test: qHTS for Inhibitors of binding or entry into cells for Lassa Virus; also: nearly all actives have a fitted effect of over 50% in size
Settings: Lassa virus pseudotype entry inhibition, cell reporter; series mostly up to 37.9 µM
Potency is read from the fitted curve at half-maximal effect.

Row | SMILES | Potency
1 | COc1cccc(C(=O)Nc2ccc(NC(=O)C3C4C=CC(C4)C3C(=O)O)cc2)c1 (stereo not drawn) | inactive
2 | Oc1ccc(Cc2ccccc2Cl)c(O)c1 | inconclusive: 14.1 µM [inhibitor, single point]
3 | CCOC(=O)c1c(-c2ccc(C)cc2C)csc1NC(=O)c1ccccc1Cl | inactive
4 | NC(=O)C1CCN(C(=O)c2ccc3c(c2)N(Cc2cccc(Cl)c2)C(=O)c2ccccc2S3(=O)=O)CC1 | inconclusive: 35.5 µM [inhibitor, single point]
5 | CCOc1ccc(C(=O)NC2CC3CCCC(C2)N3Cc2ccccc2)cc1 (stereo not drawn) | inconclusive: 14.1 µM [inhibitor, single point]
6 | Cc1ccc(-c2nn3c(C)nnc3s2)cc1N | inactive
7 | Cc1ccc(CN2CC(C(=O)N3CCN(S(=O)(=O)c4ccc(C)cc4C)CC3)CC2=O)cc1 (stereo not drawn) | inconclusive: 10 µM [inhibitor, partial curve, poor fit]
8 | CC(C)(Oc1ccc(Br)cc1Cl)C(=O)Nc1ccon1 | inconclusive: 0.1 µM [activator, full curve, poor fit]
9 | CCc1c(C)sc(NC(=O)CN2CCN(C(=O)c3ccco3)CC2)c1C(=O)OC | active: 3.55 µM
10 | Cc1ccc(S(=O)(=O)N2CCOCC2)cc1NC(=O)COC(=O)CNC(=O)c1ccccc1 | inactive
11 | COc1ccc(Br)cc1CN(C)C(=O)c1ccccc1SCC(=O)N1CCCC1 | inconclusive: 20 µM [inhibitor, partial curve, poor fit]
12 | O=C(NCCc1c[nH]c2ccccc12)c1ccc([N+](=O)[O-])cc1 | inconclusive: 31.6 µM [activator, partial curve, poor fit]
13 | Fc1cccc(CSc2ncnc3c2ncn3C2CCCCO2)c1 (stereo not drawn) | inconclusive: 35.5 µM [inhibitor, single point]
14 | Nc1c(C(=O)NCc2ccccc2)sc2nc(N3CCOCC3)c3c(c12)CCCC3 | inconclusive: 32.6 µM [inhibitor, single point]
15 | CC(=O)Nc1ccc(OCc2ccc3c(c2)OCO3)cc1 | inactive
16 | CCOC(=O)N1CCN(C(=O)COC(=O)Cc2ccc(OC)cc2)CC1 | inconclusive: 17.8 µM [inhibitor, partial curve, poor fit]
17 | O=c1[nH]c(C2CCN(S(=O)(=O)c3ccc4c(c3)OCCO4)CC2)nc2c1nnn2Cc1ccc(F)cc1 | inconclusive: 12.6 µM [inhibitor, single point]
18 | COc1cc(-c2cc(C(=O)Nc3ccccc3N3CCOCC3)c3ccccc3n2)cc(OC)c1OC | inconclusive: 15.8 µM [inhibitor, single point]
19 | CCOC(=O)c1sc(N/N=C/c2cccc(C)c2)nc1C | inconclusive: 0.398 µM [inhibitor, full curve, poor fit]
20 | Cc1ccccc1C(=O)N1CCC(C(=O)N(C)CC(=O)Nc2cccc(F)c2)CC1 | inactive
21 | CC(C)(C)OC(=O)N1CCC(c2cc(-c3cccs3)n[nH]2)CC1 | inconclusive: 35.5 µM [inhibitor, single point]
22 | COc1ccc(C2CC(=O)c3c([nH]c(C(=O)OC(C)C)c3C)C2)cc1OC (stereo not drawn) | inactive

A draw from above in order of molecular weight, smallest number first:
Row | SMILES | Potency
9 | CCc1c(C)sc(NC(=O)CN2CCN(C(=O)c3ccco3)CC2)c1C(=O)OC | active: 3.55 µM
7 | Cc1ccc(CN2CC(C(=O)N3CCN(S(=O)(=O)c4ccc(C)cc4C)CC3)CC2=O)cc1 (stereo not drawn) | inconclusive: 10 µM [inhibitor, partial curve, poor fit]
17 | O=c1[nH]c(C2CCN(S(=O)(=O)c3ccc4c(c3)OCCO4)CC2)nc2c1nnn2Cc1ccc(F)cc1 | inconclusive: 12.6 µM [inhibitor, single point]

More entries follow:

Row | SMILES | Potency
23 | COc1ccc(OC(=O)CSc2nnc(-c3ccc(F)cc3)o2)cc1 | inactive
24 | C/C(=N\Nc1nc2ccccc2[nH]1)c1cccs1 | inconclusive: 35.5 µM [inhibitor, single point]
25 | O=C1/C(=C/c2ccc(O)cc2)CCc2ccc([N+](=O)[O-])cc21 | inactive
26 | COc1ccc(NC(=O)C(NC(=O)/C=C\c2ccc3c(c2)OCO3)c2ccc(OC)cc2)cc1 (stereo not drawn) | inconclusive: 1.58 µM [inhibitor, partial curve, poor fit]
27 | CCC(C(=O)NC1CCCCC1)N(C(=O)c1snc(C(N)=O)c1N)c1ccc(OC)cc1OC (stereo not drawn) | inconclusive: 2.82 µM [inhibitor, single point]
28 | Cn1/c(=N\NC(=O)C2CCCCC2)sc2ccccc21 | inconclusive: 7.94 µM [activator, partial curve, poor fit]
29 | COc1ccc(CCN(C)C(=O)CCc2nnc(-c3ccccc3)o2)cc1OC | inconclusive: 35.5 µM [inhibitor, single point]
30 | Cc1sc2ncnc(N3CCC(C(=O)Nc4ccc(Br)cc4Br)CC3)c2c1C | inconclusive: 35.5 µM [inhibitor, single point]
31 | COc1ccc(-c2csc(N3CCC(c4ccccc4)CC3)n2)cc1 | inactive
32 | COc1cc(/C=C/C(=O)OCC(=O)c2c(N)n(C)c(=O)n(C)c2=O)ccc1OCC#N | inconclusive: 7.94 µM [inhibitor, partial curve]
33 | O=C(Nc1cc(Cl)ccc1Cl)c1cc(S(=O)(=O)N2CCCc3ccccc32)ccc1F | inconclusive: 35.5 µM [activator, single point]
34 | COc1ccc2c(c1)CCC/C2=N\NC(=O)c1ccoc1C | inconclusive: 3.66 µM [activator, partial curve, poor fit]
35 | CCOc1ccc2nc(NC(=O)COC)sc2c1 | inconclusive: 7.08 µM [inhibitor, full curve, poor fit]
36 | O=C(O)C1C2C=CC(C2)C1C(=O)NCCc1ccccc1 (stereo not drawn) | inactive
37 | CCNC(=O)C(=O)NCC(c1ccc2c(c1)OCO2)N1CCOCC1 (stereo not drawn) | inconclusive: 10 µM [activator, partial curve, poor fit]
38 | O=C(O)CCSc1ncnc2sc(-c3ccccc3)cc12 | inconclusive: 0.562 µM [inhibitor, full curve, poor fit]
39 | O=C(Nc1ccn(Cc2ccccc2F)n1)c1ccc(COc2ccc(Br)cc2)cc1 | inactive
40 | CCc1nc(Nc2ccc(N3CCN(C(C)=O)CC3)cc2)c2oc3ccccc3c2n1 | inconclusive: 35.5 µM [inhibitor, single point]
41 | COc1cc(/C=N\NC(=O)CN2CCOCC2)ccc1OCC(=O)Nc1ccc(C)c(C)c1 | inactive
42 | O=C(c1ccco1)N1CCC(c2ccccc2)C1 (stereo not drawn) | inactive
43 | O=C(c1nc(-c2ccccc2)n(-c2ccccc2)n1)N1CCN(S(=O)(=O)c2ccccc2)CC1 | inconclusive: 16.4 µM [inhibitor, single point]
